Holding throughout (test): log2 fold change, soluble protein after heating vs DMSO (PISA); higher = thermal stabilisation; K562 lysate, 10 uM; active = over 0.2 and 3.5 SD of the protein, either way, in both replicates (recomputed)
Compound in one test: Cc1cn(-c2cc(NC(=O)c3ccc(C)c(Nc4nccc(-c5cccnc5)n4)c3)cc(C(F)(F)F)c2)cn1 [nilotinib]
The method in brief: (§1)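 The values are log-two fold changes in thermal stability compared with solvent controls and come from duplicates. They were obtained by TMTpro 16plex LC-MS/MS, with channel sums equalised, on the supernatant after 21,000xg for 90 min. That supernatant came from crude K562 extract at 1 mg/mL protein treated with 10 μM compound for 30 min, heated for 3 min across 48°C-58°C, pooled and brought to 0.5% NP-40 at 4°C.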

The chains behind the UniProt entries cited, without tags or fusion partners. Where a name states a change or a piece, a line headed by the entry shows the natural chain unless it says otherwise.
UniProt Q5JRX3: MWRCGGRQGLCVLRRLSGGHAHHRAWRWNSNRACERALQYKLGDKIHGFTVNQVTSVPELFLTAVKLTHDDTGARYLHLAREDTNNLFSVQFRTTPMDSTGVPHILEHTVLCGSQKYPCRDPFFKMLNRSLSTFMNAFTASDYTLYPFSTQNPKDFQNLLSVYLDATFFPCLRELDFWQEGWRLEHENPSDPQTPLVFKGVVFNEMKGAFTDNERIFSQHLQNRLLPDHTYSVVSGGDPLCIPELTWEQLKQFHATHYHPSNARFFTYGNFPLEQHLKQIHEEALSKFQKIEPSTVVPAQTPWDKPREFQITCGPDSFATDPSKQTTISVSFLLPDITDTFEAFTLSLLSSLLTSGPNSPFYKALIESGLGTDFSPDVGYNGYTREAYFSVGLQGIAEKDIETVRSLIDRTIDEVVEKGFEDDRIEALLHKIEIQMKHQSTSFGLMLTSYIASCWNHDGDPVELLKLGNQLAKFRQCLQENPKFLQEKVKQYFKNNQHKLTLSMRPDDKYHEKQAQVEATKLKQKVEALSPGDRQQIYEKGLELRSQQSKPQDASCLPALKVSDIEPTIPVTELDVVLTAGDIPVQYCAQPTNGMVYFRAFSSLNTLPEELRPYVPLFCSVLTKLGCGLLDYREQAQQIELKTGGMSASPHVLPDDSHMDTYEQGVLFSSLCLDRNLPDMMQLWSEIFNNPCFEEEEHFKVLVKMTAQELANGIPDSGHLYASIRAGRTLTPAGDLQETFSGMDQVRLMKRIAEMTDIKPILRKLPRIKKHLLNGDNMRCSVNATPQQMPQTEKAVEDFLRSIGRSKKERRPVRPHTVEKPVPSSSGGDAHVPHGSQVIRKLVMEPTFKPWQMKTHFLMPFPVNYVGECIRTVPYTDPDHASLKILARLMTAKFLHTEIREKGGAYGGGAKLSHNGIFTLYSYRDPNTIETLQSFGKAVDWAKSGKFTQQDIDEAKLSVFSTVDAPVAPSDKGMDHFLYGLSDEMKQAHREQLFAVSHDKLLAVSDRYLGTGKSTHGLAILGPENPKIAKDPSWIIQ
UniProt Q9H814, whole entry, looked up: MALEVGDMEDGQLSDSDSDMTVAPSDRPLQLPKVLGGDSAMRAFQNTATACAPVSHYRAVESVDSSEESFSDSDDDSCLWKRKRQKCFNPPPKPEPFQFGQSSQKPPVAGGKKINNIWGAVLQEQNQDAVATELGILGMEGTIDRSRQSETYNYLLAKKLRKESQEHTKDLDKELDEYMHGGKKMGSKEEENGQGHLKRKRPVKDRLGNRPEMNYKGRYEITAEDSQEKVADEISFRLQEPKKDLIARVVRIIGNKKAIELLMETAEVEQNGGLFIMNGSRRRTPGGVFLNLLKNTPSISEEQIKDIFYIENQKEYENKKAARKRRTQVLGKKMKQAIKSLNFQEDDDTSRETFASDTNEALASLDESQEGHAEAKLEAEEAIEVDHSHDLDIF
UniProt Q9UG56: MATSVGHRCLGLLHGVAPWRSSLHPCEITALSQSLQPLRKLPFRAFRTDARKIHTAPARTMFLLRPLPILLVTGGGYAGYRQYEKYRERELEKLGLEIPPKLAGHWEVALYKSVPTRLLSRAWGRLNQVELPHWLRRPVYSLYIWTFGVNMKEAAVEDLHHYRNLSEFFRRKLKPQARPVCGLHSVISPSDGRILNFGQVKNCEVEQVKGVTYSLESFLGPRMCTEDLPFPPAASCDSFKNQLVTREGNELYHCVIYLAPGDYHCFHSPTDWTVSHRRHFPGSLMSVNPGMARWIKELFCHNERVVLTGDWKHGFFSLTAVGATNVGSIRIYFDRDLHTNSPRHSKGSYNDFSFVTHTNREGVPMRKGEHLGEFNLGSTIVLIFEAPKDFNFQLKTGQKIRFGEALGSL
UniProt P12273: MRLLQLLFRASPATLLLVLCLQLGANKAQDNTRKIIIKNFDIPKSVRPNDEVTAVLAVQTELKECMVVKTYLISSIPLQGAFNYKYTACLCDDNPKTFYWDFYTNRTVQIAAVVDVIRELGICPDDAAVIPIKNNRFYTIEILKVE
UniProt Q93100: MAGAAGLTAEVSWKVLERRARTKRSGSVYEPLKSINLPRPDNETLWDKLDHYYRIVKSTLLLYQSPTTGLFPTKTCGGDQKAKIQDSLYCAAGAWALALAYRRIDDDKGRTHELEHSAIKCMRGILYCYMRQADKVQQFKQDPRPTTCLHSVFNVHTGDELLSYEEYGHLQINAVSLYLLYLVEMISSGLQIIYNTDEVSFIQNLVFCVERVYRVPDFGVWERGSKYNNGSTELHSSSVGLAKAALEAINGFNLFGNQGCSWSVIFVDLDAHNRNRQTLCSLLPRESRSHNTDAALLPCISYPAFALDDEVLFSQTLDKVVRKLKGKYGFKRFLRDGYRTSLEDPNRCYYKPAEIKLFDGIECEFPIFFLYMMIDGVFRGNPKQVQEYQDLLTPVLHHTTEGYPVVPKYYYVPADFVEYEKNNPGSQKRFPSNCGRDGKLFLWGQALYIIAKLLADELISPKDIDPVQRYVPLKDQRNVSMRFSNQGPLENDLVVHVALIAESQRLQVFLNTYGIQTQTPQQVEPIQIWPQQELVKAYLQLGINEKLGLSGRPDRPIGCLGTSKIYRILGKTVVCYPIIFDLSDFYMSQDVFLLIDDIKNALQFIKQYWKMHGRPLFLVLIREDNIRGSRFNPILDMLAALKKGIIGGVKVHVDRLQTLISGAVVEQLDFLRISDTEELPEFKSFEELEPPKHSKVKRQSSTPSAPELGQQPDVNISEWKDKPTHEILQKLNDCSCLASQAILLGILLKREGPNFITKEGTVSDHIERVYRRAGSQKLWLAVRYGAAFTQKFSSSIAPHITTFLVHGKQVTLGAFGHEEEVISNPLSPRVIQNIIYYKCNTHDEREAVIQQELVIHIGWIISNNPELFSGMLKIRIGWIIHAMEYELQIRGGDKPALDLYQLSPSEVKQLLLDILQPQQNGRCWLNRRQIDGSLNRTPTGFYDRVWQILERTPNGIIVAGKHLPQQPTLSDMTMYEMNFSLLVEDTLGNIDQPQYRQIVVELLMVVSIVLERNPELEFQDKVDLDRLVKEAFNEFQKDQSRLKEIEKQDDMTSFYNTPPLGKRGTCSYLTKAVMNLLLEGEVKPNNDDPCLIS
UniProt Q8TBX8: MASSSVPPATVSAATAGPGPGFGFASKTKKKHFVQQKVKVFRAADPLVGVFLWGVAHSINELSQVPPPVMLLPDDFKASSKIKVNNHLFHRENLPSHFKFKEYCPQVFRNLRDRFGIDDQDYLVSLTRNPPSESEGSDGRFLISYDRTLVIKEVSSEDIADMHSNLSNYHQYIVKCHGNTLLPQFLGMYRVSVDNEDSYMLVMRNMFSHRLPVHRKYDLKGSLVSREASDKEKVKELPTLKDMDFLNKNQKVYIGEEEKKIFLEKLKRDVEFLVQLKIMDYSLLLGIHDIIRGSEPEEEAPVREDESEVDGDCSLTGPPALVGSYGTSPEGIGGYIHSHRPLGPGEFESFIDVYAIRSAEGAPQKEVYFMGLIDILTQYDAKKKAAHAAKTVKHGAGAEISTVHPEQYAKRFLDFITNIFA
UniProt Q8NCC3: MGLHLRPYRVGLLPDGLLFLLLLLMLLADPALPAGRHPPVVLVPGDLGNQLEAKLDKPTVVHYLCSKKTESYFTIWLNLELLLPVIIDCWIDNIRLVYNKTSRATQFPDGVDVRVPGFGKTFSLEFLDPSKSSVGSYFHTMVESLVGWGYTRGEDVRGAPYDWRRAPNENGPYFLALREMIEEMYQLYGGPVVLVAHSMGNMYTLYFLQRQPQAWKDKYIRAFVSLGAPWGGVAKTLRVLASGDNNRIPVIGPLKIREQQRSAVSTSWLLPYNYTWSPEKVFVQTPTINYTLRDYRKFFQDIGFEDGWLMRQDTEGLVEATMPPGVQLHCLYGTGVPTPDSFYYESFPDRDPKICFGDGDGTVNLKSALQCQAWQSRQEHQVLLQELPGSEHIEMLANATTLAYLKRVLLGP
UniProt P55347: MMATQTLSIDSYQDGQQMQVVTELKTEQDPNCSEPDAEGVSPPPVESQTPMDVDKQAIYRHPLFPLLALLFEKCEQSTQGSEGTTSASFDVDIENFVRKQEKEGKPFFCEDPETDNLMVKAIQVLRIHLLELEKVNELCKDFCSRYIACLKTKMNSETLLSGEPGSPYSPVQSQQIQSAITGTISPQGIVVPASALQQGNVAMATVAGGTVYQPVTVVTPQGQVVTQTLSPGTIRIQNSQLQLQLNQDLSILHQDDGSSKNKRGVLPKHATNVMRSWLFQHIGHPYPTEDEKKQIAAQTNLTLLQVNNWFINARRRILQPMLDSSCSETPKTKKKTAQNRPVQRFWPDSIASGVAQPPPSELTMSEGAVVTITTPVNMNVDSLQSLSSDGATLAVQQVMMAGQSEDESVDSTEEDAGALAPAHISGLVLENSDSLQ
UniProt P78356: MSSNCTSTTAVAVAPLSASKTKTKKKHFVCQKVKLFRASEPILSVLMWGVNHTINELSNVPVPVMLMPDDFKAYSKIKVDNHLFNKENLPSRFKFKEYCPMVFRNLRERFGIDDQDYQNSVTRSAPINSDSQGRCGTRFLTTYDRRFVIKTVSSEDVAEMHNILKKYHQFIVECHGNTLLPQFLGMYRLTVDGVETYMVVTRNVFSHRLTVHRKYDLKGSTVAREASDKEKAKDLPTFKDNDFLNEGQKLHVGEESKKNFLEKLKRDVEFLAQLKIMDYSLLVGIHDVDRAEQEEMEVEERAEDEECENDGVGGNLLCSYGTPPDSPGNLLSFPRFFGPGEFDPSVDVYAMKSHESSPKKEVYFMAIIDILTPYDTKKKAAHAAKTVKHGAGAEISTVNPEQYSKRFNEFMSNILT
UniProt Q00169: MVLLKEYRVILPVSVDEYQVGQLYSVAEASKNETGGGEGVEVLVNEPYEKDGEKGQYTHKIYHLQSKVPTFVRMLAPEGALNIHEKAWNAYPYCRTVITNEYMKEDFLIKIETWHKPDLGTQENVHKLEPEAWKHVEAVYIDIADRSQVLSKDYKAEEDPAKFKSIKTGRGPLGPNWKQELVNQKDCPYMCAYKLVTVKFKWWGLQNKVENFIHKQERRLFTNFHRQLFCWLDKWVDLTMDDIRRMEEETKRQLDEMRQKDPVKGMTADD

Compound in test [1]: Cc1nc(Nc2n[nH]c3c2CN(C(=O)N[C@H](CN(C)C)c2ccccc2)C3(C)C)c2sccc2n1
In short, it runs like this: as §1

Compound in the next test: Cc1nc(Nc2ncc(C(=O)Nc3c(C)cccc3Cl)s2)cc(N2CCN(CCO)CC2)n1 [dasatinib]
The method in brief:
as §1

Compound in test [2]: Cc1ncc(-c2ccnc(Nc3ccc(S(C)(=O)=O)cc3)n2)n1C(C)C
The method in brief:
as §1

Compound in test [3]: Cn1cc(-c2ccc3c(c2)CCN3C(=O)Cc2cccc(C(F)(F)F)c2)c2c(N)ncnc21
The method in brief: as §1

Compound in a further test: Cn1cc(CNCC2CCN(c3ncc(C(=O)NO)cn3)CC2)c2ccccc21 [quisinostat]
The method in brief: as §1

Compound in the next test: Cn1cncc1[C@@](N)(c1ccc(Cl)cc1)c1ccc2c(c1)c(-c1cccc(Cl)c1)cc(=O)n2C [tipifarnib]
The method in brief: as §1

Compound in test [4]: NC(=O)Nc1cc(-c2cccc(F)c2)sc1C(=O)N[C@H]1CCCNC1
In short, it runs like this:
as §1

Compound in test [5]: NC(=O)c1cnc(N[C@@H]2CCCC[C@@H]2N)nc1Nc1cccc(-n2nccn2)c1
In short, it runs like this:
as §1

Compound in test [6]: NC1(c2ccc(-c3nc4ccn5c(=O)[nH]nc5c4cc3-c3ccccc3)cc2)CCC1
In short, it runs like this:
as §1

Compound in test [7]: NCC(=O)Nc1ccc(-n2nc(C(F)(F)F)cc2-c2ccc3c(ccc4ccccc43)c2)cc1
In short, it runs like this: as §1

Compound in another test: O=C(CCCCCCC(=O)Nc1ccccc1)NO [vorinostat]
In short, it runs like this:
as §1

Compound in another test: O=C(O)c1ccc2c(c1)nc(Nc1cccc(Cl)c1)c1ccncc12 [silmitasertib]
The method in brief: as §1

Compound in test [8]: O=C1NC(=O)C(c2cnc3ccccn23)=C1c1cn2c3c(cc(F)cc13)CN(C(=O)N1CCCCC1)CC2
In short, it runs like this:
as §1

Compound in a further test: c1cn2cc(-c3ccc4cn[nH]c4c3)nc(Nc3ccc(N4CCOCC4)cc3)c2n1 [entospletinib]
In short, it runs like this: as §1

This is one part of the list.

Consider PITRM1 isoform 2 (UniProt Q5JRX3), for which the log2 fold change with nilotinib is inactive: 0.014; in test [1], inactive: -0.035; in the test with dasatinib, inactive: 0.011; in test [2], inactive: -0.021; in test [3], inactive: -0.002; with quisinostat it was inactive: 0.021. The log2 fold change with tipifarnib was inactive: 0.013; in test [4] it was inactive: 0.005; in test [5] it was inactive: 0; in test [6], inactive: -0.008; in test [7], inactive: 0.003; with vorinostat, inactive: 0.111. For the same target, the log2 fold change in the test with silmitasertib was inactive: 0.006; in test [8] it was inactive: -0.011; with entospletinib it was inactive: 0.002.
Take PHAX (UniProt Q9H814): the log2 fold change was inactive: 0.003 with nilotinib; inactive: -0.022 in test [1]; inactive: 0.015 with dasatinib; inactive: -0.065 in [2]; inactive: -0.031 in test [3]; inactive: -0.017 with quisinostat. Besides, the log2 fold change with tipifarnib was inactive: 0.008; in [4] it was inactive: -0.016; in [5], inactive: 0.026; in [6], inactive: 0.036; in [7], inactive: -0.005; in the test with vorinostat it was inactive: 0.085. Further, the log2 fold change with silmitasertib was inactive: -0.008; in test [8] it was inactive: -0.053; with entospletinib, inactive: 0.014.
In the case of PISD (UniProt Q9UG56), the log2 fold change with nilotinib is inactive: -0.019; in test [1], inactive: 0.019; with dasatinib, inactive: 0.008; in test [2], inactive: 0.008; in test [3], inactive: 0.088; in the test with quisinostat, inactive: -0.017. Also, the log2 fold change with tipifarnib is inactive: 0.006; in test [4] it was inactive: 0.133; in test [5] it was inactive: 0.044; in test [6], inactive: 0.031; in test [7] it was inactive: -0.031; with vorinostat it was inactive: 0.113. The log2 fold change is inactive: 0.067 with silmitasertib, inactive: 0.15 in test [8] and inactive: -0.043 in the test with entospletinib.
For PIP (UniProt P12273), the log2 fold change is inactive: 0.315 in the test with nilotinib; inactive: -0.105 in test [1]; inactive: 0.117 in the test with dasatinib; inactive: 0.079 in test [2]; inactive: 0.444 in test [3]; inactive: 0.017 with quisinostat. In addition, the log2 fold change is inactive: -0.299 in the test with tipifarnib; inactive: -0.251 in test [4]; inactive: 0.398 in [5]; inactive: 0.19 in test [6]; inactive: -0.067 in [7]; inactive: 0.243 with vorinostat. The results for the log2 fold change (with silmitasertib; in test [8]; with entospletinib) were inactive: -0.483, inactive: 0.348 and inactive: -0.238, respectively.
With PHKB isoform 3 (UniProt Q93100), the log2 fold change was inactive: -0.007 in the test with nilotinib; inactive: 0.121 in [1]; inactive: -0.023 in the test with dasatinib; inactive: 0.001 in test [2]; inactive: 0.008 in [3]; inactive: -0.063 in the test with quisinostat. Besides, the log2 fold change was inactive: -0.035 in the test with tipifarnib; active: 0.28 in test [4]; inactive: 0.004 in test [5]; inactive: -0.058 in test [6]; inactive: -0.023 in test [7]; active: -0.288 with vorinostat. Also, the values for the log2 fold change (with silmitasertib; in [8]; with entospletinib) were inactive: 0.07, inactive: 0.016 and inactive: 0.023, respectively.
Consider PIP4K2C (UniProt Q8TBX8), for which the log2 fold change in the test with nilotinib was inactive: 0.169; in test [1] it was inactive: -0.015; in the test with dasatinib it was inactive: 0.047; in test [2], inactive: 0.298; in test [3], inactive: 0.029; with quisinostat, inactive: -0.095. Also, the log2 fold change is inactive: -0.012 with tipifarnib; inactive: 0.035 in test [4]; inactive: 0.033 in test [5]; inactive: -0.085 in test [6]; inactive: 0.021 in test [7]; inactive: -0.07 in the test with vorinostat. In addition, the log2 fold change in the test with silmitasertib was active: 0.425; in test [8], inactive: 0.063; in the test with entospletinib it was inactive: 0.004.
PLA2G15 (UniProt Q8NCC3): the log2 fold change with nilotinib is inactive: 0.013; in [1], inactive: -0.003; with dasatinib, inactive: 0.004; in test [2], inactive: -0.002; in test [3] it was inactive: 0.009; in the test with quisinostat, inactive: -0.1. The log2 fold change was inactive: 0.014 with tipifarnib; inactive: 0.008 in [4]; inactive: -0.041 in test [5]; inactive: 0.005 in test [6]; inactive: -0.002 in test [7]; inactive: -0.021 in the test with vorinostat. Besides, the log2 fold change is inactive: -0.018 with silmitasertib, inactive: -0.016 in test [8] and inactive: -0.012 with entospletinib.
On to PKNOX1 (UniProt P55347), for which the log2 fold change in the test with nilotinib was inactive: 0.102; in [1], inactive: -0.079; with dasatinib, inactive: 0.046; in test [2], inactive: -0.123; in test [3], inactive: 0.014; in the test with quisinostat, inactive: -0.108. For the same target, the log2 fold change with tipifarnib is inactive: -0.113; in [4] it was inactive: 0.007; in [5], inactive: 0.016; in test [6], inactive: 0.049; in test [7], inactive: 0.043; in the test with vorinostat, inactive: -0.148. Besides, the log2 fold change was inactive: -0.013 with silmitasertib, inactive: 0.031 in test [8] and inactive: -0.139 with entospletinib.
Consider PIP4K2B (UniProt P78356), for which the log2 fold change in the test with nilotinib was inactive: 0.032; in test [1], inactive: 0.024; with dasatinib it was inactive: 0.151; in test [2] it was inactive: 0.093; in test [3], inactive: 0.008; in the test with quisinostat, inactive: -0.017. Further, the log2 fold change in the test with tipifarnib is inactive: -0.007; in test [4], inactive: 0; in test [5] it was inactive: 0.002; in [6], inactive: -0.034; in test [7] it was inactive: 0.005; in the test with vorinostat it was inactive: 0.074. Moreover, the log2 fold change with silmitasertib is inactive: 0.221; in [8], inactive: 0.073; in the test with entospletinib, inactive: -0.013.
PITPNA (UniProt Q00169): the log2 fold change in the test with nilotinib was inactive: 0.006; in test [1], inactive: 0.01; with dasatinib, inactive: 0.033; in test [2], inactive: -0.018; in test [3] it was inactive: 0.022; in the test with quisinostat it was inactive: -0.007. Moreover, the log2 fold change in the test with tipifarnib was inactive: 0.022; in test [4], inactive: 0.003; in [5], inactive: -0.009; in [6] it was inactive: 0.004; in test [7], inactive: -0.024; with vorinostat it was inactive: 0.115. Besides, the log2 fold change with silmitasertib was inactive: 0.018; in [8], inactive: 0.015; with entospletinib it was inactive: 0.003.

These data come from the supplement of paper PMC10849652.
